Source: article PMC7143582, “Functional Characterization of Sex Pheromone Receptors in the Fall Armyworm (Spodoptera frugiperda)” (Insects, 2020)
Some results come without the dose or concentration used.

Test system: T1, SfruOR13
T1 construct: gene OR13; full-length ORF; with SfruORco
Assay: two-electrode voltage clamp, Xenopus oocytes co-expressing SfruOR13/ORco, […] screening
Assay type: cell-based, Spodoptera frugiperda

C/C=C/C/C=C\CCCCCCCCOC(C)=O [Z9,E12-14:OAc, (Z, E)-9, 12-tetradecadienyl acetate]
two-electrode voltage clamp, Xenopus oocytes co-expressing SfruOR13/ORco, 10^-4: 205 nA

CC/C=C\CCCCCCCCOC(C)=O [Z9-12:OAc]
two-electrode voltage clamp, Xenopus oocytes co-expressing SfruOR13/ORco, 10^-4: 106 nA
